{"source": "PubChem BioAssay AID1347076", "about": "(National Center for Advancing Translational Sciences (NCATS), 2019)", "note": "In all, about 400,000 compounds went through this assay and about 13,000 (3.2%) were called active. The shares of active, inactive and inconclusive entries below differ from those in the screen. Calls come from the whole dose curve; as a rule, active = well fitted cell-killing curve with a large enough effect; inconclusive = small, poorly fitted or top-dose-only effect, or effect the other way; inactive = flat fitted curve, though single readings scatter. Potencies of inconclusive entries are doubtful fits and often do not repeat. % is set by controls: 0 for no effect and ±100 for the full control effect; potency is the fitted concentration of half-maximal effect.", "data": [{"assay": "qHTS assay for MDR1-selective chemotherapeutics: Primary screen using the drug-selected MDR subline cells KB-V1; note: nearly all actives have a fitted effect of over 60% in size", "conditions": "KB-V1 MDR cells viability, CellTiter-Glo, 72 h; activity change, negative = cytotoxicity: at 46.1 µM (top of the series)", "summary_of_the_method": "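KB-V1 cells (P-gp-expressing MDR subline of KB-3-1) in phenol-red-free DMEM with 10% FBS were exposed to library compounds over a concentration series for 72 h at 37 degrees C. Viability read by CellTiter-Glo luminescence; concentration-effect curves fitted after normalization.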", "values": [{"smiles": "COc1cccc(CN(C)C(=O)c2ccc(NS(=O)(=O)c3ccc(F)cc3)cc2)c1OC", "activity change, negative = cytotoxicity": "inactive: -17.9%"}, {"smiles": "CCC(C(=O)Nc1ccc(C(C)=O)cc1)n1cnc2nc3c(cc2c1=O)CCCC3", "note": "(stereo not drawn)", "activity change, negative = cytotoxicity": "inactive: 2.73%"}, {"smiles": "CCOc1ccc2nc(-c3cc(NC(C)=O)ccc3O)sc2c1", "Potency": "inconclusive: 20.6 µM [rising, single point]"}, {"smiles": "CCOC(=O)C1(C)NC(c2ccc(OC)cc2OC)C2C(=O)N(CC)C(=O)C21", "note": "(stereo not drawn)", "Potency": "inconclusive: 29.1 µM [rising, single point]"}, {"smiles": "Cc1c(NC(=O)Nc2ccc(F)cc2F)c(=O)n(-c2ccccc2)n1C", "activity change, negative = cytotoxicity": "inactive: 23.7%"}, {"smiles": "Cc1ccc(N2OC3C(=O)NC(=O)C3C2c2ccco2)cc1", "note": "(stereo not drawn)", "Potency": "inconclusive: 14.6 µM [rising, partial curve, poor fit]"}, {"smiles": "FC(F)(F)c1cccc(Cn2c3[n+](c4ccc(C(F)(F)F)cc42)CCCCC3)c1", "activity change, negative = cytotoxicity": "inactive: -13.9%"}, {"smiles": "O=S1(=O)CC(N2CCN(Cc3ccccc3F)CC2)CN1Cc1cn(Cc2ccc(C(F)(F)F)cc2)nn1", "note": "(stereo not drawn)", "Potency": "inconclusive: 29.1 µM [cytotoxic, single point]"}, {"smiles": "O=C(c1ccccc1F)N1CCCC(C(=O)N2CCN(c3ccccc3)CC2)C1", "note": "(stereo not drawn)", "Potency": "inconclusive: 13 µM [cytotoxic, partial curve]"}, {"smiles": "COc1cc(C(CC(=O)NCc2ccccc2)N2Cc3ccccc3C2=O)cc(OC)c1OC", "note": "(stereo not drawn)", "activity change, negative = cytotoxicity": "inactive: 0%"}, {"smiles": "O=[N+]([O-])c1ccc(NS(=O)(=O)c2ccccc2)c(Cl)c1", "Potency": "active: 23.1 µM"}, {"smiles": "O=C(NC1C/C=C\\C(c2ccccc2)N(c2ccccc2)C(=O)C1)OCC1c2ccccc2-c2ccccc21", "note": "(stereo not drawn)", "activity change, negative = cytotoxicity": "inactive: -3.15%"}, {"smiles": "O=C(O)c1cccc(NS(=O)(=O)c2ccc(Cl)c(C(=O)Nc3cccc([N+](=O)[O-])c3)c2)c1", "activity change, negative = cytotoxicity": "inactive: 0.17%"}, {"smiles": "Cc1ccccc1N=Cc1cc2c(cc1O)OC(N)=C(C#N)C2c1ccccc1", "note": "(stereo not drawn)", "Potency": "inconclusive: 25.9 µM [cytotoxic, single point]"}, {"smiles": "COc1ccc(C(CNC(=O)CCNS(=O)(=O)c2ccccc2)N2CCOCC2)cc1", "note": "(stereo not drawn)", "activity change, negative = cytotoxicity": "inactive: -6.28%"}, {"smiles": "Cn1c(=O)c2c(nc(NCc3cccnc3)n2Cc2ccc(Cl)cc2)n(C)c1=O", "Potency": "inconclusive: 18.4 µM [cytotoxic, partial curve, poor fit]"}, {"smiles": "CCN(CC)CC#CCC(C)(c1ccccc1)c1ccccc1", "Potency": "inconclusive: 29.1 µM [cytotoxic, single point]"}, {"smiles": "COc1cccc(S(=O)(=O)N(C)C[C@@H]2OCc3cnnn3CCCC(=O)N([C@@H](C)CO)C[C@@H]2C)c1", "Potency": "inconclusive: 29.1 µM [cytotoxic, single point]"}, {"smiles": "NC(=O)/C(=N\\OC(=O)c1ccco1)c1nc(-c2ccc(Br)cc2)cs1", "Potency": "active: 9.2 µM"}, {"smiles": "CCOC(=O)C1(Cc2ccc(Cl)cc2)CCN(C(=O)CCc2cnccn2)CC1", "Potency": "inconclusive: 29.1 µM [cytotoxic, single point]"}, {"smiles": "Cc1ccc(NC(=O)COc2ccc(Cl)cc2Cl)cc1S(=O)(=O)N1CCOCC1", "Potency": "inconclusive: 20.6 µM [cytotoxic, single point]"}, {"smiles": "Cc1nnc(SCC(=O)NC2CCCCCC2)n1N", "activity change, negative = cytotoxicity": "inactive: -17.4%"}, {"smiles": "COc1cccc(N2CCN(CC(=O)NC3=Nc4ccccc4N=C(C)C3c3ccccc3)CC2)c1", "note": "(stereo not drawn)", "Potency": "inconclusive: 11.6 µM [cytotoxic, partial curve]"}, {"smiles": "COCn1c(-c2cccc(Br)c2)nc2ccccc21", "Potency": "active: 18.4 µM"}, {"smiles": "O=C(NCCc1ccc(Cl)cc1)C1CCCN(S(=O)(=O)N2CCCCCC2)C1", "note": "(stereo not drawn)", "activity change, negative = cytotoxicity": "inactive: 5.69%"}, {"smiles": "COc1ccc(/C=C/c2n[nH]c(=O)c(C#N)c2C)cc1", "Potency": "inconclusive: 20.6 µM [cytotoxic, partial curve, poor fit]"}, {"smiles": "COc1ccccc1N1CCN(C(=O)CCc2nnc3ccc(N4CCC(C)CC4)nn23)CC1", "Potency": "inconclusive: 32.6 µM [cytotoxic, partial curve, poor fit]"}, {"smiles": "CCC(=O)N1CCc2cc(S(=O)(=O)CCC(=O)NCCc3ccccc3)ccc21", "activity change, negative = cytotoxicity": "inactive: 0%"}, {"smiles": "Cc1ccc(SCc2ccc(C(=O)NCc3cccnc3)cc2)cc1", "Potency": "inconclusive: 20.6 µM [cytotoxic, single point]"}, {"smiles": "COc1cc(NC(=O)CSc2ncnc3sc4c(c23)CCC(C)C4)c(C(=O)O)cc1OC", "note": "(stereo not drawn)", "Potency": "inconclusive: 18.4 µM [rising, single point]"}, {"smiles": "Cc1cc(CSc2nc(C)cc(=O)[nH]2)c2ncccc2c1", "Potency": "inconclusive: 29.1 µM [cytotoxic, single point]"}, {"smiles": "CCN1CCN(S(=O)(=O)c2ccc(Cl)c(C(=O)NC(C)c3ccccc3Cl)c2)CC1", "note": "(stereo not drawn)", "Potency": "inconclusive: 8.2 µM [cytotoxic, partial curve]"}, {"smiles": "O=C1NC(=O)/C(=C/c2ccc(OS(=O)(=O)c3ccc(F)cc3F)cc2)N1", "Potency": "inconclusive: 16.4 µM [rising, single point]"}, {"smiles": "N#C/C(=C\\c1ccc(-c2cccc(Cl)c2)o1)C(=O)Nc1cccc(C(F)(F)F)c1", "Potency": "inconclusive: 29.1 µM [rising, single point]"}, {"smiles": "c1ccc(-c2nc(C3CCCCC3)c3sccc3n2)cc1", "Potency": "inconclusive: 32.6 µM [rising, single point]"}, {"smiles": "COc1ccc(Cl)cc1NC(=S)NCc1ccco1", "Potency": "inconclusive: 29.1 µM [cytotoxic, single point]"}, {"smiles": "COC(=O)[C@@H](CC(C)C)N(Cc1ccccc1)S(=O)(=O)N(Cc1ccccc1)[C@@H](CC(C)C)C(=O)OC", "Potency": "inconclusive: 20.6 µM [cytotoxic, partial curve, poor fit]"}, {"smiles": "C[C@]12CC[C@H](O)CC1=C[C@H](O)C1C2CC[C@@]2(C)C1CC[C@@]2(O)C#Cc1ccc(CN)cc1", "note": "(stereo partly drawn)", "activity change, negative = cytotoxicity": "inactive: 15.2%"}, {"smiles": "CN(C)S(=O)(=O)c1ccc(NC(=S)NC(=O)c2cccs2)cc1", "activity change, negative = cytotoxicity": "inactive: 0.064%"}, {"smiles": "COc1ccccc1N1CCN(/N=C/C(Cl)=C/c2ccccc2)CC1", "Potency": "inconclusive: 29.1 µM [cytotoxic, single point]"}, {"smiles": "CN(CC(=O)Nc1ccccc1Sc1ccccc1)C1CCCCC1", "Potency": "inconclusive: 18.4 µM [cytotoxic, partial curve]"}, {"smiles": "Cc1ccc(NS(=O)(=O)c2cc(C(=O)NCc3ccccn3)ccc2Cl)cc1C", "Potency": "inconclusive: 20.6 µM [cytotoxic, partial curve, poor fit]"}, {"smiles": "CN(CCc1ccccc1)C(=O)c1ccc(NC(=O)Cc2ccc(NC(=O)C3CCN(C(=O)CCc4ccccc4)CC3)cc2)cc1", "activity change, negative = cytotoxicity": "inactive: 9.7%"}]}]}
